According to US11833131B2, “Compositions and methods for treating inflammatory diseases” (priority 2017, dated 2023):
At least one compound was matched to its structure with a doubt left.

Tested on: IL-8 levels in HCT116 cells
Test: IL-8 ELISA in TNF-α-treated HCT116 cells
Assay type: cell-based, human
Conditions: HCT116 pretreated with TNF-α; C2F, C2B 114-207 μg/mL; dexamethasone 200 and 400 μM; compared to TNF-α
Description: FIGS. 13A-C depict EC50 dose of fractions on HCT116 cells. (FIG. 13A) Fraction 7 (F7), (FIG. 13B) CBD and (FIG. 13C) THC. Dose-effect curves of F7, CBD or THC on IL-8 levels of HCT116 colon cancer cells. HCT116 cells were seeded (50,000 per well) in triplicate in 500 μL, growing media and incubated for 24 hours at 37° C. in a humidified 5% CO2-95% air atmosphere. Cells were treated with 50 ng/mL TNF-α and F7, CBD or THC for 16 hours. Levels of IL-8 were measured from the supernatant using a commercial kit. Values (ng/mL) were calculated relative to a TNF-α treated control. Non-treated are the cells without TNF-α and treatments. […]
Cells were seeded, in triplicate, into a 24-well plate at a concentration of 50,000 cells per well in 500 μL, of growing media, and then incubated for 24 hours at 37° C. in a humidified 5% CO2-95% air atmosphere. […] The supernatant was taken and the level of IL-8 [12] was measured 4-16 hours post-treatment using the commercial Human CXCL8/IL-8 DuoSet ELISA kit (R&D Systems, Minneapolis, Minn., USA). […]
For dose response assays, data points were connected by non-linear regression lines of the sigmoidal dose-response relation. GraphPad Prism (version 6 for windows, GraphPad software Inc. San Diego, USA) was employed to produce dose-response curves and IC50 doses were calculated using nonlinear regression analysis.

## C[C@@H]1C[C@H]2[C@@H]3CCC4=CC(=O)C=C[C@]4(C)[C@@]3(F)[C@@H](O)C[C@]2(C)[C@@]1(O)C(=O)CO [dexamethasone]
  reduction of IL-8 level: inactive in reducing IL-8 level
